Experimental data taken from the supplement of paper PMC8728848.
This is one part of the list.

Assays:
Experiment in all cases: glycan array binding signal (z-score within array); higher = stronger binding
Details in all cases: glycan notation: IUPAC condensed, linker removed
Gal(a1-3)Gal(b1-3)GlcNAc = biological target: Gal(a1-3)Gal(b1-3)GlcNAc
Method in brief: (§1)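 Arrays were curated from the Consortium for Functional Glycomics database, 3228 in total, and kept only where the protein sequence was available. Binding is expressed as a within-array Z-score. This score was averaged across arrays of the same protein sequence at different concentrations or buffers and across linkers, and negative values can be read as non-binding.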

[1] = biological target: Gal(a1-3)Gal(b1-3)GlcNAc(b1-2)Man
Method in brief: as §1

[2] = biological target: Gal(a1-3)Gal(b1-3)GlcNAc(b1-2)Man(a1-3)[Gal(a1-3)Gal(b1-3)GlcNAc(b1-2)Man(a1-6)]Man(b1-4)GlcNAc(b1-4)GlcNAc
Method in brief: as §1

[3] = biological target: Gal(a1-3)Gal(b1-3)GlcNAc(b1-3)GalNAc
Method in brief: as §1

[4] = biological target: Gal(a1-3)Gal(b1-3)GlcNAc(b1-6)GalNAc
Method in brief: as §1

[5] = biological target: Gal(a1-3)Gal(b1-3)[Fuc(a1-4)]GlcNAc(b1-2)Man(a1-3)[Gal(a1-3)Gal(b1-3)[Fuc(a1-4)]GlcNAc(b1-2)Man(a1-6)]Man(b1-4)GlcNAc(b1-4)GlcNAc
Method in brief: as §1

Gal(a1-3)Gal(b1-4)Glc = biological target: Gal(a1-3)Gal(b1-4)Glc
Method in brief: as §1

Gal(a1-3)Gal(b1-4)GlcNAc = biological target: Gal(a1-3)Gal(b1-4)GlcNAc
Method in brief: as §1

[6] = biological target: Gal(a1-3)Gal(b1-4)GlcNAc(b1-2)Man
Method in brief: as §1

[7] = biological target: Gal(a1-3)Gal(b1-4)GlcNAc(b1-2)Man(a1-3)[Gal(a1-3)Gal(b1-4)GlcNAc(b1-2)Man(a1-6)]Man(b1-4)GlcNAc(b1-4)GlcNAc
Method in brief: as §1

[8] = biological target: Gal(a1-3)Gal(b1-4)GlcNAc(b1-3)GalNAc
Method in brief: as §1

[9] = biological target: Gal(a1-3)Gal(b1-4)GlcNAc(b1-6)GalNAc
Method in brief: as §1

[10] = biological target: Gal(a1-3)Gal(b1-4)[Fuc(a1-3)]GlcNAc
Method in brief: as §1

[11] = biological target: Gal(a1-3)Gal(b1-4)[Fuc(a1-3)]GlcNAc(b1-2)Man(a1-3)[Gal(a1-3)Gal(b1-4)[Fuc(a1-3)]GlcNAc(b1-2)Man(a1-6)]Man(b1-4)GlcNAc(b1-4)GlcNAc
Method in brief: as §1

Gal(a1-3)GalNAc = biological target: Gal(a1-3)GalNAc
Method in brief: as §1

[12] = biological target: Gal(a1-3)[Gal(a1-4)]Gal(b1-4)GlcNAc
Method in brief: as §1

[13] = biological target: Gal(a1-4)Gal(b1-3)GlcNAc(b1-2)Man(a1-3)[Gal(a1-4)Gal(b1-3)GlcNAc(b1-2)Man(a1-6)]Man(b1-4)GlcNAc(b1-4)GlcNAc
Method in brief: as §1

Gal(a1-4)Gal(b1-4)Glc = biological target: Gal(a1-4)Gal(b1-4)Glc
Method in brief: as §1

Gal(a1-4)Gal(b1-4)GlcNAc = biological target: Gal(a1-4)Gal(b1-4)GlcNAc
Method in brief: as §1

[14] = biological target: Gal(a1-4)Gal(b1-4)GlcNAc(b1-2)Man(a1-3)[Gal(a1-4)Gal(b1-4)GlcNAc(b1-2)Man(a1-6)]Man(b1-4)GlcNAc(b1-4)GlcNAc
Method in brief: as §1

[15] = biological target: Gal(a1-4)Gal(b1-4)GlcNAc(b1-3)Gal(b1-4)Glc
Method in brief: as §1

Gal(a1-4)GlcNAc = biological target: Gal(a1-4)GlcNAc
Method in brief: as §1

Gal(a1-6)Glc = biological target: Gal(a1-6)Glc
Method in brief: as §1

Gal(b1-2)Gal = biological target: Gal(b1-2)Gal
Method in brief: as §1

Gal(b1-3)Gal = biological target: Gal(b1-3)Gal
Method in brief: as §1

Gal(b1-3)Gal(b1-4)GlcNAc = biological target: Gal(b1-3)Gal(b1-4)GlcNAc
Method in brief: as §1

Gal(b1-3)GalNAc = biological target: Gal(b1-3)GalNAc
Method in brief: as §1

[16] = biological target: Gal(b1-3)GalNAc(a1-3)[Fuc(a1-2)]Gal(b1-4)Glc
Method in brief: as §1

[17] = biological target: Gal(b1-3)GalNAc(a1-3)[Fuc(a1-2)]Gal(b1-4)GlcNAc
Method in brief: as §1

Gal(b1-3)GalNAc(b1-3)Gal = biological target: Gal(b1-3)GalNAc(b1-3)Gal
Method in brief: as §1

[18] = biological target: Gal(b1-3)GalNAc(b1-3)Gal(a1-4)Gal(b1-4)Glc
Method in brief: as §1

[19] = biological target: Gal(b1-3)GalNAc(b1-4)Gal(b1-4)Glc
Method in brief: as §1

[20] = biological target: Gal(b1-3)GalNAc(b1-4)[Neu5Ac(a2-3)]Gal(b1-4)Glc
Method in brief: as §1

Gal(b1-3)GlcNAc = biological target: Gal(b1-3)GlcNAc
Method in brief: as §1

[21] = biological target: Gal(b1-3)GlcNAc(a1-3)Gal(b1-4)GlcNAc
Method in brief: as §1

[22] = biological target: Gal(b1-3)GlcNAc(a1-6)Gal(b1-4)GlcNAc
Method in brief: as §1

Gal(b1-3)GlcNAc(b1-2)Man = biological target: Gal(b1-3)GlcNAc(b1-2)Man
Method in brief: as §1

[23] = biological target: Gal(b1-3)GlcNAc(b1-2)Man(a1-3)[Gal(b1-3)GlcNAc(b1-2)Man(a1-6)]Man(b1-4)GlcNAc(b1-4)GlcNAc
Method in brief: as §1

B1: FimA-N2 (Actinomyces oris) (protein)
chain: MHHHHHHSSGVDLGTENLYFQSNAWIYDVNVYPKNEAIDVDKTIQAQKLNGYGVGSLIKFPVESTAPTLDAKSFYKYFQLKDTLDERLSEVTATDVSLEGTPLQPTDYKVETKQQTVTVTFTAEGLKKIKAAPGKKVSAVFQGKVTKAGNGAITNRAQVISDTLYAEQPPTPETPPTDPENPPTSDEVISRWGDLSIKKVDTHQQGQTKA
glycan array binding signal (z-score) (Gal(a1-3)Gal(b1-3)GlcNAc): 1.02 | glycan array binding signal (z-score) [1]: 2.25 | glycan array binding signal (z-score) [2]: 0.101 | glycan array binding signal (z-score) [3]: -0.826 | glycan array binding signal (z-score) [4]: -1.06 | glycan array binding signal (z-score) [5]: 0.334 | glycan array binding signal (z-score) (Gal(a1-3)Gal(b1-4)Glc): 0.989 | glycan array binding signal (z-score) (Gal(a1-3)Gal(b1-4)GlcNAc): 0.411 | glycan array binding signal (z-score) [6]: -0.454 | glycan array binding signal (z-score) [7]: -1.06 | glycan array binding signal (z-score) [8]: 0.644 | glycan array binding signal (z-score) [9]: -0.538 | glycan array binding signal (z-score) [10]: -1.47 | glycan array binding signal (z-score) [11]: 1.29 | glycan array binding signal (z-score) (Gal(a1-3)GalNAc): -0.66 | glycan array binding signal (z-score) [12]: 2.77 | glycan array binding signal (z-score) [13]: 0.627 | glycan array binding signal (z-score) (Gal(a1-4)Gal(b1-4)Glc): -1.24 | glycan array binding signal (z-score) (Gal(a1-4)Gal(b1-4)GlcNAc): 0.248 | glycan array binding signal (z-score) [14]: 0.413 | glycan array binding signal (z-score) [15]: -0.622 | glycan array binding signal (z-score) (Gal(a1-4)GlcNAc): -1.59 | glycan array binding signal (z-score) (Gal(a1-6)Glc): -0.872 | glycan array binding signal (z-score) (Gal(b1-2)Gal): -0.277 | glycan array binding signal (z-score) (Gal(b1-3)Gal): -0.808 | glycan array binding signal (z-score) (Gal(b1-3)Gal(b1-4)GlcNAc): -0.943 | glycan array binding signal (z-score) (Gal(b1-3)GalNAc): -0.095 | glycan array binding signal (z-score) [16]: -1.39 | glycan array binding signal (z-score) [17]: -0.496 | glycan array binding signal (z-score) (Gal(b1-3)GalNAc(b1-3)Gal): -0.678 | glycan array binding signal (z-score) [18]: -0.155 | glycan array binding signal (z-score) [19]: 0.824 | glycan array binding signal (z-score) [20]: -0.093 | glycan array binding signal (z-score) (Gal(b1-3)GlcNAc): 0.373 | glycan array binding signal (z-score) [21]: -0.415 | glycan array binding signal (z-score) [22]: -1.32 | glycan array binding signal (z-score) (Gal(b1-3)GlcNAc(b1-2)Man): -1.18 | glycan array binding signal (z-score) [23]: -0.179
